Data as given in PubChem BioAssay AID1259425 (University of Nebraska Medical Center, 2018).

Assay: 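Seek colon cancer weak points whose silencing resembles KSR1 loss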 (primary screen)
System: HCT116 human colon cancer cells
Reagents: siRNA pool against human genes, 50 nM siRNA
Detection: 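After 50 nM siRNA pool, branched-DNA assay measures six marker transcripts per well, minus blank, normalised to the geometric mean of two housekeeping transcripts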
Reading the numbers: BNIP3L mRNA: higher = more BNIP3L transcript after knockdown
The deposit covers about 14,000 reagents; shown is a random part of them. Further read-outs or replicates are left out here. Reagent sequences are not shown. The record does not give: the time to read-out.

no.	target	BNIP3L mRNA, set 1
1	RABL2A	0.136
2	SSH2	0.0684
3	PLEKHO2	0.0937
4	LPAR4	0.181
5	HOXB1	0.0714
6	NSA2	0.101
7	ZER1	0.11
8	DNAAF9	0.189
9	ATOH1	0.14
10	LRP12	0.0686
11	HTR1F	0.111
12	MESP1	0.0908
13	BAX	0.119
14	SNTG1	0.11
15	NEU1	0.0737
16	CLPB	0.229
17	GRHL3	0.134
18	FMO4	0.0695
19	OAS1	0.102
20	VAX2	0.0809
21	ZNF669	0.154

As entered above:
Under “BNIP3L mRNA, set 1”, ATOH1 has 0.14
VAX2, BNIP3L mRNA, set 1 → 0.0809
Entry of RABL2A under “BNIP3L mRNA, set 1”: 0.136
Under “BNIP3L mRNA, set 1”, DNAAF9 is entered as 0.189
Under “BNIP3L mRNA, set 1”, ZNF669 is entered as 0.154

The list goes on.
no.	target	BNIP3L mRNA, set 1
22	NR4A2	0.123
23	ATP2B1	0.0659
24	LECT2	0.107
25	HDGFL2	0.144
26	MIR9-1HG	0.135
27	MAST1	0.234
28	CUX1	0.104
29	CHD9	0.044
30	DEF6	0.0848
31	DMRT2	0.239
32	ITGA8	0.0558
33	RMDN1	0.0691
34	CCDC33	0.0951
